Source: PubChem BioAssay AID652259 (Drosophila RNAi Screening Center, 2013)
The deposit covers about 22,000 reagents; below is an unselected part of those with a known target gene and a result. Of all reagents, 233 (1.1%) are marked active. 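Light values are raw, unnormalised plate reads; the ratio scores behind the reporter calls were not deposited.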 Names joined by + are all predicted targets of the reagent. Not stated in the record: the amount of reagent, the time to read-out, the dose of the treatment.

Assay: 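Identify new Wingless signalling regulators in fly cells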 (primary screen)
System: Drosophila clone 8 imaginal disc epithelial cells
Reagents: long dsRNA against Drosophila genes
Conditions: pathway stimulated by co-transfected Wingless expression plasmid
Measured: 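Dual luciferase reads per well after Wingless plasmid stimulation: reporter firefly light and Renilla control light; activity is firefly divided by Renilla, a ratio not deposited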
Reading the numbers: firefly reporter light: higher = more Wg reporter light, before normalisation; Renilla control light: higher = more transfected or surviving cells
Hit rule: 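a knock-down is a candidate when at least two out of four statistical tests show it departing from its plate mean; one test alone signals a weak candidate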
Meaning of the calls: active = candidate regulator (raises or lowers reporter); inactive = not a candidate

| target | DRSC id | reporter change call, replicate 1 | firefly reporter light, replicate 1 | firefly reporter light, replicate 2 | Renilla control light, replicate 1 | Renilla control light, replicate 2 | activity call |
| --- | --- | --- | --- | --- | --- | --- | --- |
| dock | DRSC00812 | – | 10420 | – | 3691 | – | inactive |
| CG33217 | DRSC22907 | – | 9.27e5 | 8.81e5 | 4.78e5 | 20399 | inactive |
| Or49b | DRSC07494 | – | 7041 | – | 2640 | – | inactive |
| Leash | DRSC15617 | – | 14022 | – | 3042 | – | inactive |
| TpnC47D | DRSC07564 | – | 9715 | – | 3824 | – | inactive |
| lgs | DRSC17152 | Wg reporter activity lowered | 528 | 984 | 1207 | 2198 | active |
| tty | DRSC20588 | – | 4001 | 8245 | 1545 | 3594 | inactive |
| gdl-ORF39 + gdl | DRSC11350 | – | 7387 | – | 1894 | – | inactive |
| CG15695 | DRSC15117 | – | 16851 | – | 3431 | – | inactive |
| h-cup + Rbp | DRSC14990 | – | 20513 | – | 3732 | – | inactive |
| mRpL24 | DRSC03113 | – | 11728 | – | 4806 | – | inactive |
| emei | DRSC10897 | – | 11559 | – | 3949 | – | inactive |
| emei | DRSC22684 | – | 5.51e5 | 5.26e5 | 1.91e5 | 1.60e5 | inactive |
| CG3726 | DRSC18320 | – | 3802 | 10145 | 1273 | 3553 | inactive |
| Hipk | DRSC07885 | – | 2131 | – | 1016 | – | inactive |
| Hipk | DRSC08507 | – | 12929 | – | 2680 | – | inactive |
| CG34049 | DRSC00104 | – | 16690 | – | 10416 | – | inactive |
| Ent2 | DRSC02124 | – | 13174 | – | 4214 | – | inactive |
| CG9775 | DRSC12330 | – | 8805 | – | 3894 | – | inactive |
| CG9775 | DRSC22667 | – | 4.62e5 | 5.18e5 | 1.28e5 | 1.07e5 | inactive |
| CG34382 | DRSC08999 | – | 3687 | – | 1220 | – | inactive |
| CG34382 | DRSC10166 | – | 6369 | – | 4498 | – | inactive |
| CG34382 | DRSC10167 | – | 5449 | – | 3792 | – | inactive |
| Rab18 | DRSC18702 | – | 1222 | 3376 | 690 | 1504 | inactive |
| Gfrl | DRSC15196 | – | 13835 | – | 2850 | – | inactive |
| Gfrl | DRSC15197 | – | 4858 | 6112 | 1584 | 2327 | inactive |
| Gfrl | DRSC15199 | – | 23047 | – | 4006 | – | inactive |
| Gfrl | DRSC15565 | – | 2265 | 7573 | 1056 | 1900 | inactive |
| Gfrl | DRSC15719 | – | 13050 | – | 2362 | – | inactive |
| CG43187 | DRSC05607 | – | 26253 | – | 12888 | – | inactive |
| Rfx | DRSC16820 | – | 9561 | – | 1766 | – | inactive |
| CG14691 | DRSC14914 | – | 17298 | – | 4930 | – | inactive |
| Srp19 | DRSC11288 | – | 2456 | 7000 | 1353 | 4032 | inactive |
| CG17271 | DRSC15210 | – | 21104 | – | 4368 | – | inactive |
| CG17271 | DRSC22629 | – | 8.69e5 | 9.34e5 | 81646 | 28174 | inactive |
| Oatp33Ea | DRSC02859 | – | 6312 | – | 2632 | – | inactive |
| CG31804 | DRSC22728 | – | 6.62e5 | 7.30e5 | 3.03e5 | 89162 | inactive |
| Ccdc39 | DRSC12286 | – | 9968 | – | 4108 | – | inactive |
| Pxn | DRSC08685 | – | 21844 | 7.28e5 | 8045 | 3.79e5 | inactive |
| CG15450 | DRSC20522 | – | 12778 | – | 7232 | – | inactive |
| gskt | DRSC14056 | – | 3420 | – | 1317 | – | inactive |
| CG13384 | DRSC02258 | – | 7905 | – | 4692 | – | inactive |
| CG31760 | DRSC02590 | – | 1542 | 5771 | 612 | 1717 | inactive |
| CG11380 | DRSC18632 | Wg reporter activity raised | 22215 | – | 5931 | – | active |
| sotv + CG10731 | DRSC05930 | – | 6435 | – | 2374 | – | inactive |
| sotv + CG10731 | DRSC05997 | – | 3157 | – | 1681 | – | inactive |
| CG17977 | DRSC06700 | – | 2672 | 9217 | 929 | 3632 | inactive |
| qkr58E-3 | DRSC04711 | – | 12117 | – | 2865 | – | inactive |
| CG12310 | DRSC09878 | – | 6902 | – | 1913 | – | inactive |
| CG6006 | DRSC13137 | – | 1344 | – | 464 | – | inactive |
| CG6006 | DRSC15946 | – | 2007 | 4544 | 512 | 1649 | inactive |
| Cyp4c3 | DRSC16631 | – | 2985 | 5912 | 963 | 1909 | inactive |
| CG32533 | DRSC19443 | – | 1986 | 7341 | 705 | 3312 | inactive |
| CG32533 | DRSC19553 | – | 12237 | – | 6932 | – | inactive |
| Cdc23 | DRSC02708 | – | 14736 | – | 4617 | – | inactive |
| Chd1 | DRSC00745 | – | 11085 | – | 3633 | – | inactive |
| Ldh | DRSC11198 | – | 1648 | 7424 | 1126 | 2869 | inactive |
| Sdb | DRSC06272 | – | 6194 | – | 2784 | – | inactive |
| Sdb | DRSC06273 | – | 9414 | – | 3910 | – | inactive |
| Sdb | DRSC07155 | – | 13441 | – | 4464 | – | inactive |
| Ire1 | DRSC15606 | – | 11926 | – | 3267 | – | inactive |
| CG1603 | DRSC06602 | – | 12141 | – | 3709 | – | inactive |
| CG14598 | DRSC12541 | – | 12080 | – | 3453 | – | inactive |
| Rnb | DRSC16325 | Wg reporter activity lowered | 650 | 1123 | 768 | 1611 | active |
| Nadsyn | DRSC20222 | – | 2379 | 5916 | 903 | 2184 | inactive |
| CG30429 | DRSC04040 | – | 21704 | – | 9053 | – | inactive |
| CG42720 (retired record) | DRSC22549 | – | 7.92e5 | 8.25e5 | 3.74e5 | 1.20e5 | inactive |
| Nepl18 | DRSC14879 | – | 6179 | – | 4377 | – | inactive |
| CG15414 | DRSC00429 | – | 4627 | 9078 | 1554 | 2921 | inactive |
| CG15414 | DRSC22353 | – | 6.77e5 | 6.60e5 | 3.04e5 | 3.17e5 | inactive |
| Sc2 | DRSC08162 | – | 4392 | – | 2579 | – | inactive |
| CG14720 | DRSC14942 | – | 20057 | – | 4405 | – | inactive |
| CG10669 | DRSC14261 | – | 13520 | – | 14038 | – | inactive |

An excerpt of the results above, for reference:
| target | DRSC id | reporter change call, replicate 1 | firefly reporter light, replicate 1 | firefly reporter light, replicate 2 | Renilla control light, replicate 1 | Renilla control light, replicate 2 | activity call |
| --- | --- | --- | --- | --- | --- | --- | --- |
| Rfx | DRSC16820 | – | 9561 | – | 1766 | – | inactive |
| CG14691 | DRSC14914 | – | 17298 | – | 4930 | – | inactive |
| Srp19 | DRSC11288 | – | 2456 | 7000 | 1353 | 4032 | inactive |
| CG17271 | DRSC15210 | – | 21104 | – | 4368 | – | inactive |
